Test results reported in PubChem BioAssay AID504834 (National Center for Advancing Translational Sciences (NCATS), 2011).
The whole screen tested about 320,000 compounds, of which about 22,000 (6.9%) were called active. This list was built around the results that the source calls inconclusive (neither active nor inactive); the mix of calls is not that of the screen. Calls come from the whole dose curve; as a rule, active = well fitted inhibition curve with a large enough effect; inconclusive = small, poorly fitted or top-dose-only effect, or another doubt; inactive = no such curve, though single readings can be large or run the other way. Potencies of inconclusive entries are doubtful fits and often do not repeat.

assay: Primary qHTS for delayed death inhibitors of the malarial parasite plastid, 96 hour incubation; details: P. falciparum luciferase reporter growth; series mostly up to 28.7 µM; activity change, negative = inhibition: at the top concentration
Method in brief: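 P. falciparum expressing integrated firefly luciferase grown in erythrocytes (2% hematocrit, 0.05% parasitemia final) with compounds for 96 hours at 37 C, 5% CO2. Growth inhibition read as loss of luminescence after adding luciferase detection reagent.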
% is set by controls: 0 for no effect and ±100 for the full control effect; potency is the fitted concentration of half-maximal effect.

SMILES	Potency	activity change, negative = inhibition
N#CC(C#N)=C(Nc1ccc(F)cc1)SCc1cccc(Br)c1	inconclusive: 9.28 µM [inhibitor, single point]	
Cc1ccc2c(COC(=O)c3ccccc3Br)cc(=O)oc2c1		inactive: 74%
Cn1c(Oc2ccccc2NCc2cccc(Br)c2)cc(=O)n(C)c1=O	inconclusive: 18.5 µM [inhibitor, single point]	
O=C(Nn1c(-c2ccc(Br)cc2)nc2ccccc2c1=O)c1cccnc1	inconclusive: 18.5 µM [inhibitor, single point]	
Cc1ccc(CSc2nnc(SCC(=O)N/N=C/C=C/c3ccco3)s2)cc1	inconclusive: 3.7 µM [inhibitor, single point]	
CCOC(=O)/C=C/c1nc(C(=O)OCC)c(C)c(=O)[nH]1	inconclusive: 14.7 µM [inhibitor, partial curve, poor fit]	
COc1ccc(C2c3c(-c4ccccc4)n[nH]c3C(=O)N2c2ccc(C(=O)O)cc2)cc1 (centres undefined)	inconclusive: 18.5 µM [inhibitor, single point]	
O=C(Nc1ccc(Cl)cc1Cl)c1ccc(Br)o1	inconclusive: 18.5 µM [inhibitor, single point]	
CC1(C)C2CCC(C2)C1(C)NC(=O)CNC1CCCCC1 (centres undefined)		inactive: 14.2%
CC(NC(=S)NCCc1ccccc1)C(c1cccs1)N1CCN(Cc2ccccc2)CC1 (centres undefined)	inconclusive: 18.5 µM [inhibitor, single point]	
COc1cccc(-c2nc(CS(=O)CC(=O)NC(C)CCc3ccccc3)c(C)o2)c1 (centres undefined)	inconclusive: 13.1 µM [inhibitor, partial curve, poor fit]	
Cc1cc(C(=O)COc2ccc3ccc(=O)oc3c2)c(C)n1Cc1cccs1	inconclusive: 9.28 µM [inhibitor, single point]	
CCOC(=O)C1=C(CSc2nc3ccccc3s2)NC(=O)NC1c1ccc(OC)cc1 (centres undefined)	inconclusive: 0.415 µM [inhibitor, partial curve, poor fit]	
CCc1ccc(OCC(=O)N2CCc3ccccc32)cc1		inactive: 41.1%
O=C(CNC(=O)c1cccs1)OCC(=O)c1ccccc1Cl	inconclusive: 18.5 µM [inhibitor, single point]	
O=C(Nc1cccc(C(=O)O)c1)/C(=C\c1ccccc1Cl)NC(=O)c1ccco1		inactive: 0.0914%
O=C(CSc1nc(-c2ccccc2)ns1)NCC1CCCO1 (centres undefined)		inactive: 40%
CC(/C=C1\SC(=S)N(NC(=O)c2ccccc2C)C1=O)=C\c1ccccc1	inconclusive: 4.65 µM [inhibitor, partial curve, poor fit]	
CCCc1cc(NCCCN2CCOCC2)n2c(nc3ccccc32)c1C#N		inactive: -19.5%
O=C(Cc1ccccc1F)Nc1ccc2c(c1)CCC2		inactive: 200%
COc1cccc(/C=N/NC(=O)C(C)Cn2cnc3ccccc32)c1 (centres undefined)	inconclusive: 0.0738 µM [inhibitor, full curve, poor fit]	
O=C(c1ccccc1Br)N1N=C(c2ccccc2)CC1c1ccccc1F (centres undefined)	inconclusive: 10.4 µM [inhibitor, single point]	

SMILES	Potency	activity change, negative = inhibition
C=CCN(c1ccccc1)S(=O)(=O)c1ccc(Cl)c(C(=O)OCC(=O)c2[nH]c(C)c(C(C)=O)c2C)c1		inactive: -23.8%
O=C(c1ccco1)N1CCN(Cc2cc(=O)c(OCc3ccc([N+](=O)[O-])cc3)co2)CC1	inconclusive: 10.4 µM [inhibitor, partial curve]	
O=C(CCC1CCCN(C(=O)C2CCCC2)C1)NCc1ccc(F)c(F)c1 (centres undefined)		inactive: -6.21%
COc1ccc(-c2noc(CCC(=O)Nc3cccc(C)c3)n2)cc1	inconclusive: 2.08 µM [inhibitor, partial curve]	
CN(C(=O)CSc1ccc(S(=O)(=O)N2CCCCC2)cn1)c1ccccc1	active: 11.7 µM	
O=C1C2C3C=CC(C4CC34)C2C(=O)N1Cc1ccccc1 (centres undefined)		inactive: 188%
CCC(C)c1ccccc1N1CC(C(=O)N2CCN(C(=O)c3ccco3)CC2)CC1=O (centres undefined)	inconclusive: 18.5 µM [inhibitor, single point]	
O=C(CSc1nc2[nH]ncc2c(=O)n1-c1ccc(Cl)c(Cl)c1)NCc1ccccc1Cl	inconclusive: 10.4 µM [inhibitor, partial curve, poor fit]	
Cc1nc(NC(=O)CN2CC(C)OC(C)C2)sc1C(=O)N(C)C (centres undefined)	inconclusive: 18.5 µM [inhibitor, single point]	
O=C(NCc1ccccn1)c1cc(-c2ccccc2Cl)nc2ccccc12	inconclusive: 10.4 µM [inhibitor, single point]	
CCOC(=O)c1c(CN2CCN(CCO)CC2)n(-c2ccccc2)c2cc(Br)c(O)cc12	active: 1.65 µM	
CCn1nc(C)c(CN2CCC(n3nccc3NC(=O)Cc3ccccc3)CC2)c1C	active: 11.7 µM	
CSC1=NC(=O)/C(=C\c2cccc3ccccc23)S1		inactive: 122%
O/N=C/c1ccc(OCC(O)COc2ccc(/C=N/O)cc2)cc1	inconclusive: 11.7 µM [inhibitor, single point]	
Cc1ccc2c(Cl)cc(Cl)c(OCC(=O)N3CCOCC3)c2n1	inconclusive: 9.28 µM [inhibitor, partial curve]	
COc1cccc(OC)c1C(=O)Nc1ccc(N2CCN(C(=O)c3ccco3)CC2)cc1	inconclusive: 14.7 µM [inhibitor, single point]	
Cc1cc(=O)[nH]c(/N=C(\N)Nc2ccc(Oc3ccccc3)cc2)n1	inconclusive: 18.5 µM [inhibitor, single point]	
CCn1c(=O)n(CC)c2cc(S(N)(=O)=O)ccc21	inconclusive: 18.5 µM [inhibitor, single point]	
COCCSc1nnc(NC(=O)c2ccc([N+](=O)[O-])cc2)s1	inconclusive: 18.5 µM [inhibitor, single point]	
Cc1cc(=S)nc(-c2ccccn2)[nH]1	active: 3.7 µM	
CN(CC(=O)Nc1cccc(F)c1)C(=O)c1cn(-c2ccccc2)nc1-c1ccccc1	inconclusive: 16.5 µM [inhibitor, partial curve, poor fit]	
O=C(COc1ccc2ccc(=O)oc2c1)N1CCN(C(=O)C2COc3ccccc3O2)CC1 (centres undefined)	inconclusive: 13.1 µM [inhibitor, single point]	

In the list so far, 7 have bromine.
SMILES	Potency	activity change, negative = inhibition
N#CC(C#N)=C(Nc1ccc(F)cc1)SCc1cccc(Br)c1	inconclusive: 9.28 µM [inhibitor, single point]	
Cc1ccc2c(COC(=O)c3ccccc3Br)cc(=O)oc2c1		inactive: 74%
Cn1c(Oc2ccccc2NCc2cccc(Br)c2)cc(=O)n(C)c1=O	inconclusive: 18.5 µM [inhibitor, single point]	
O=C(Nn1c(-c2ccc(Br)cc2)nc2ccccc2c1=O)c1cccnc1	inconclusive: 18.5 µM [inhibitor, single point]	
O=C(Nc1ccc(Cl)cc1Cl)c1ccc(Br)o1	inconclusive: 18.5 µM [inhibitor, single point]	
O=C(c1ccccc1Br)N1N=C(c2ccccc2)CC1c1ccccc1F (centres undefined)	inconclusive: 10.4 µM [inhibitor, single point]	
CCOC(=O)c1c(CN2CCN(CCO)CC2)n(-c2ccccc2)c2cc(Br)c(O)cc12	active: 1.65 µM	
